Experimental data taken from publication PMC6704128.
Results are given in words; binding and its absence hold for the method and conditions named. For part of these data: Binding seen in cells or lysates may run through a third protein. Some results given as binding are weak or reduced against the parent protein; the word gives no strength. Where a sequence is shown, tags or fusion partners need not be part of it.

Amino acid sequences for entries named in this document (tags omitted). Residues count along the entry.
UniProt P08514, residues 987-1039: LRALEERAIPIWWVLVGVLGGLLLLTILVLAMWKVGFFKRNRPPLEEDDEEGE

T1: full-length Canis familiaris ICln (cICln), N-terminal His6-tagged (Canis familiaris) (UniProt P35521)
T1 sequence: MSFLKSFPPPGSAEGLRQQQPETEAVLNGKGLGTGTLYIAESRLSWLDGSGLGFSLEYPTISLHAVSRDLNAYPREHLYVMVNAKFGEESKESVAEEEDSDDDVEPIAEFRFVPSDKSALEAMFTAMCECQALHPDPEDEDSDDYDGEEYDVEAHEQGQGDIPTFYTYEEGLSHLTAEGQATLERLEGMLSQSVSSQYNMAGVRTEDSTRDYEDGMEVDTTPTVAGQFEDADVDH


What was measured:
[1] = biological target: T1, full-length Canis familiaris ICln (cICln), N-terminal His6-tagged (Canis familiaris); test: NMR titration; 1H-15N HSQC of 15N-labelled ICln (0.8 mM) without and with the integrin peptide (equimolar amount for TcICln); 50 mM K2HPO4, pH 6.6, 90% H2O/10% D2O, 25 °C, 800 MHz; both purified
[2] = biological target: αIIbs-YFP (transmembrane and intracellular portion, amino acids 987-1039, of the human integrin αIIb chain, YFP at the C-terminus) (human) (UniProt P08514); test: FRET or BRET; acceptor photobleaching; NIH-3T3 fibroblasts fixed in 3% paraformaldehyde, in phosphate buffered saline; data not shown
[3] = biological target: αIIbs-YFP (transmembrane and intracellular portion, amino acids 987-1039, of the human integrin αIIb chain, YFP at the C-terminus) (human) (UniProt P08514); test: FRET or BRET; sensitized emission N-FRET; living NIH-3T3 fibroblasts in isotonic solution and after 10, 15 and 20 min of hypotonic solution; three plasma membrane ROIs of each cell

binding [1] | binding [2] | Binder | binding [3]
binds weakly |  | MWKVGFFKRNRPPLEEDDEEGE [integrin peptide (1018)…(1039), the entire C-terminus of integrin αIIb] | 
 | binds | CFP-ICln (Canis familiaris ICln, wild type, CFP fused to the N-terminus) (protein, UniProt P35521 1-235) MSFLKSFPPPGSAEGLRQQQPETEAVLNGKGLGTGTLYIAESRLSWLDGSGLGFSLEYPTISLHAVSRDLNAYPREHLYVMVNAKFGEESKESVAEEEDSDDDVEPIAEFRFVPSDKSALEAMFTAMCECQALHPDPEDEDSDDYDGEEYDVEAHEQGQGDIPTFYTYEEGLSHLTAEGQATLERLEGMLSQSVSSQYNMAGVRTEDSTRDYEDGMEVDTTPTVAGQFEDADVDH | binds
